Data on six sequences can be found in publication PMC6358617.

By UniProt entry, the sequences of proteins in these tests, tags left out. Where a name states a change or a piece, a line headed by the entry shows the natural chain unless it says otherwise.
UniProt P20333: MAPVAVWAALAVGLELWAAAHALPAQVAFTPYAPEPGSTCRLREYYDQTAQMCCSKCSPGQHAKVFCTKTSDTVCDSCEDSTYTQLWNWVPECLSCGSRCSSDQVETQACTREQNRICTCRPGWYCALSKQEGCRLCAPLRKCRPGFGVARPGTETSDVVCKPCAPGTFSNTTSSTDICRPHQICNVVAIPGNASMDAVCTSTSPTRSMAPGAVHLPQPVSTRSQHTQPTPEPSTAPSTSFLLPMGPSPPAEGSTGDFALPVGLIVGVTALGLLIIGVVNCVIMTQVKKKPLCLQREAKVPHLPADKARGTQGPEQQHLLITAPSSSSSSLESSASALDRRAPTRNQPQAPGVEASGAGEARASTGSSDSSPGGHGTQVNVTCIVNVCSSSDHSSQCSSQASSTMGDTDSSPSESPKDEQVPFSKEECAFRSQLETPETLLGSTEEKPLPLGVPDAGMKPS

Common to all, as to assay: ELASA
In data set [1] the target is rituximab Fc, glycosylated (FabRICATOR/IdeS digest, FragIT) (UniProt P01857). To be noted: 20 mM Tris-HCl pH 7.6, 100 mM NaCl, 2 mM MgCl2, 5 mM KCl, 1 mM CaCl2, 0.02% Tween 20, SAW at 22 C (protein A chip-captured rituximab), ELASA at room temperature, 2 h, commercial protein, label: 5'-biotin in ELASA.
The next data set deals with etanercept (Enbrel) (UniProt P20333). The settings on record: 20 mM Tris-HCl pH 7.6, 100 mM NaCl, 2 mM MgCl2, 5 mM KCl, 1 mM CaCl2, 0.02% Tween 20, SAW at 22 C (protein A chip-captured rituximab), ELASA at room temperature, 2 h, commercial protein, label: 5'-biotin in ELASA.
In the next data set the test system is Fc/2, non-glycosylated. To be noted: 20 mM Tris-HCl pH 7.6, 100 mM NaCl, 2 mM MgCl2, 5 mM KCl, 1 mM CaCl2, 0.02% Tween 20, SAW at 22 C (protein A chip-captured rituximab), ELASA at room temperature, 2 h, recombinant protein, label: 5'-biotin in ELASA.
[2] abbreviates: 50 nM aptamer, single-stranded DNA.
Where [3] appears, read: 50 nM aptamer, folded or branched DNA.
Where [4] appears, read: 25 nM aptamer, single-stranded DNA.

Negatives hold for the conditions tested. At least one verdict rests on a figure or table, not on a statement of the authors. For some of these results: For at least one entry, the source does not settle the construct or the ends of the probe. For some of these results: A weaker result is weaker than the reference pair of the same experiment.

“CGGCGGGGGGAGGATTGTGGTCTGCTCATGGCTGCCGTTT [RA1]”: the binding result in data set [1] (setting [2]) is reported as “no binding”; in the data set with etanercept (Enbrel) (setting [2]), “no binding”; with Fc/2, non-glycosylated (setting [2]), “no binding”.

Regarding “CGTGGGTGGGGATTGTGGTTTGGCTGATGGGGTGCTGGTT [RA6]”, the binding result in data set [1] (50 nM aptamer, low but positive, folded or branched DNA) was “binds more weakly”.

For the sequence “GGCCGGTAGATGGGGAATCGGTTTCGGTGGGGCTAGGGAC [RA5]”, the binding result in data set [1] (setting [2]) is “no binding”; with etanercept (Enbrel) (setting [2]) it was “no binding”; with Fc/2, non-glycosylated (setting [2]) it was “no binding”.

With “GGGGGTGAGGATTGTGGTTTGGCTTATTGGTTTGCTGGTG [RA3]”, the binding result is “no binding” in data set [1] (setting [3]); “no binding” with etanercept (Enbrel) (setting [3]); “no binding” with Fc/2, non-glycosylated (setting [3]).

With “TATACTGGGCCGTGCGTGACTTTTCCGTGCTGCATGAGAG [RA4]”, the binding result in data set [1] (setting [4]) is given as “no binding”; in the data set with etanercept (Enbrel) (setting [4]) it was “no binding”; in the data set on Fc/2, non-glycosylated (setting [4]) it was “no binding”.

Consider “TGGGGGTAGGATTGTGGTTGGCTTTAATTGCTTTGGTGGT [RA2]”, for which the binding result in data set [1] (setting [4]) is “no binding”; with etanercept (Enbrel) (setting [4]) it was “no binding”; in the data set on Fc/2, non-glycosylated (setting [4]) it was “no binding”.
